Experimental data: PubChem BioAssay AID1259405 (NCATS, 2018)
Assay: 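Silenced genes that increase secreted GFP made by CHO cells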 (primary screen). Cell system: Chinese hamster CHO-K1 ovary cells with stable secreted eGFP expression. Reagents: single siRNA against mouse genes, 0.8 pmol siRNA per well (2 µl of 400 nM stock). Timing: 3 days. Detection: 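Per-well intracellular GFP measured by laser scanning cytometry, plus viability from ATP luminescence, each relative to plate median of non-targeting control wells, in %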. Scale: GFP, % of control: higher = more GFP per well, higher productivity. Call rule: 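a knock-down is called active if GFP reaches 120% or more of non-targeting control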.
In all, the deposit lists about 50,000 reagents; this is a random part of them. In the full data, about 4,000 (8%) got an active call. 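Mouse siRNA library applied to hamster cells; one well for each siRNA.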 A number with no mark means an inactive call. Reagents against one gene are numbered here. Not all columns of the deposit are shown.

GFP, % of control, by gene symbol and reagent
Tfpi: #1 80.7; #2 70.5; #3 104
Pcdha10: #1 92.6; #2 73; #3 70.2
Rps7: #1 33.8; #2 67; #3 74.6
Ptprc: #1 102; #2 68.7; #3 94.5
Uba1y: #1 54.6; #2 64.2; #3 69
Bdnf: #1 37; #2 72.9; #3 58.8
Armcx3: #1 66.5; #2 79.9; #3 81.9
Cngb1: #1 39.6; #2 49.2; #3 152 (active)
Dut: #1 62.5; #2 49.9; #3 74.1
Adamts12: #1 44; #2 77; #3 80.4
Knop1: #1 75.4; #2 85.7; #3 78.9
Or10ak9: #1 36.1; #2 76.5; #3 59.8
Fam98b: #1 62.8; #2 83.1; #3 64.2
Ssbp4: #1 88.9; #2 70.6; #3 72.7
Aldh1a3: #1 47.8; #2 143 (active); #3 85
Nup153: #1 116; #2 105
Tef: #1 68.4; #2 67; #3 72.3
Sytl2: #1 61.7; #2 71.8; #3 67.7
Gsdmc: #1 63.8; #2 74.8; #3 63.8
Rps12: #1 31.8; #2 45; #3 20.7
Cdkn1c: #1 67.9; #2 76.3
Or4f58: #1 118; #2 29.7; #3 112
Wrap73: #1 79.4; #2 64.6; #3 77
Phf2: #1 67.6; #2 83.1; #3 92.6
Trim29: #1 81.9; #2 86.8; #3 59.1
Gimap1: #1 76; #2 97.8; #3 92.2
Fdxr: #1 52.9; #2 68.1; #3 71.6
Or1n1b: #1 68.3; #2 89.3; #3 46.2
Cyp46a1: #1 57.9; #2 38.4; #3 50.8
